# This is one part of the list. The data scatter; read single values as rough.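 Tm was set to 64 °C where no melting was found, and many curves are irregular.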
# Chains of the proteins cited; added tags and fusions are not shown. Lines headed by an entry give the natural chain unless they say otherwise; changes in a name come on top.
# UniProt Q9UL46, whole entry: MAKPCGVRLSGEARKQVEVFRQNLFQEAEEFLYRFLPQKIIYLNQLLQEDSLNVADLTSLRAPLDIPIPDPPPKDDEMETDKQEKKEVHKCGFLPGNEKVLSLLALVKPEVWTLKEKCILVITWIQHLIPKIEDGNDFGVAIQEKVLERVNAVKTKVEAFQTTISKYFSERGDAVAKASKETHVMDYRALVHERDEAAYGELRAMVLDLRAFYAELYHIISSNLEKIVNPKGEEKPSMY
# UniProt Q9UQR1: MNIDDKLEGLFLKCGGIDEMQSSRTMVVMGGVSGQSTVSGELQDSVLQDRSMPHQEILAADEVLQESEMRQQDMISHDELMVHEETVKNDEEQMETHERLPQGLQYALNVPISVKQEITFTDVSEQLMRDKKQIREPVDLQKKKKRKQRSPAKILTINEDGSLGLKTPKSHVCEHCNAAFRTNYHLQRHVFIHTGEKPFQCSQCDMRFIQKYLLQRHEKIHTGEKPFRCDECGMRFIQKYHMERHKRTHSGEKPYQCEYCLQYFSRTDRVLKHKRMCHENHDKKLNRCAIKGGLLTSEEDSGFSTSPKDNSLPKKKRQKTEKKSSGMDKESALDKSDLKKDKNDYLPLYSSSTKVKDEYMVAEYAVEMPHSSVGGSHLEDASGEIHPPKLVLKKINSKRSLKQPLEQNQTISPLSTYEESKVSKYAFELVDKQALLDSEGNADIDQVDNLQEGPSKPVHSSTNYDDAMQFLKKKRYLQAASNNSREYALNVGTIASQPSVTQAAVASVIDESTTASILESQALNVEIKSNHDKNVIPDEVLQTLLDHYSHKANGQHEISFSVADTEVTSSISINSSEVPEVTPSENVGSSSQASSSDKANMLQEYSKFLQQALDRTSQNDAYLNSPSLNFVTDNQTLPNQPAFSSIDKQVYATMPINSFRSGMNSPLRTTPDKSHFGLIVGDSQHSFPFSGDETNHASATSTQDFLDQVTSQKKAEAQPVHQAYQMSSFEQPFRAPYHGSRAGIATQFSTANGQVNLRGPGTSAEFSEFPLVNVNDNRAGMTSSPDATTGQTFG
# UniProt Q9UQ90: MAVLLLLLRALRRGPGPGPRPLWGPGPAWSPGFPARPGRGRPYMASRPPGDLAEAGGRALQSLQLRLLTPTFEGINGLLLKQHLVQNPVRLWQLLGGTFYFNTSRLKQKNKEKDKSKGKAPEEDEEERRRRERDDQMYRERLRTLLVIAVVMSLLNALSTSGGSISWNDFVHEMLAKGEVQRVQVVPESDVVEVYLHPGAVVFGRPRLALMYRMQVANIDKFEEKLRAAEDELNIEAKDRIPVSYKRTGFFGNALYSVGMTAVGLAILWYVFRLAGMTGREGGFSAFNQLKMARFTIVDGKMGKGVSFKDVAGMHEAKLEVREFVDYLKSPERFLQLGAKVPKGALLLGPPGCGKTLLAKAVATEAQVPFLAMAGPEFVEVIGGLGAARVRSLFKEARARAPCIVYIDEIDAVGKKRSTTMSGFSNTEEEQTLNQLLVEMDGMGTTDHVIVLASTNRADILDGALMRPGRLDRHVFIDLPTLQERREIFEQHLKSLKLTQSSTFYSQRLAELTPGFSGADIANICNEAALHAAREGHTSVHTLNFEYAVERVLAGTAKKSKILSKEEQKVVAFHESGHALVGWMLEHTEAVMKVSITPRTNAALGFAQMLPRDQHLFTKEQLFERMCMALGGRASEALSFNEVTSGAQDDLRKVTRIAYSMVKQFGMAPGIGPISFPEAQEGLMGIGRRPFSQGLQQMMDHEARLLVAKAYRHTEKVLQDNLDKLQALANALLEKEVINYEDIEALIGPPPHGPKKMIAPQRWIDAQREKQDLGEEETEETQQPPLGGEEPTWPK
# UniProt Q9UHK6: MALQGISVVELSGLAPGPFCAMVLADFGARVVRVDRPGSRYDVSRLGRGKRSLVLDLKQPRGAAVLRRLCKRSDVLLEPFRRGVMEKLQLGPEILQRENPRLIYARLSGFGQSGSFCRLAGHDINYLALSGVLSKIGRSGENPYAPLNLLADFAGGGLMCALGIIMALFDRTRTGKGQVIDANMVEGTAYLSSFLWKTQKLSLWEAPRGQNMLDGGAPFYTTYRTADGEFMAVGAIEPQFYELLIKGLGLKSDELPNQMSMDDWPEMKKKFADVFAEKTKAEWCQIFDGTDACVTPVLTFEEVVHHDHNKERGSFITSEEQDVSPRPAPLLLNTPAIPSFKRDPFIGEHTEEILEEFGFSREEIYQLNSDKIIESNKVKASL
# UniProt Q9UPT9: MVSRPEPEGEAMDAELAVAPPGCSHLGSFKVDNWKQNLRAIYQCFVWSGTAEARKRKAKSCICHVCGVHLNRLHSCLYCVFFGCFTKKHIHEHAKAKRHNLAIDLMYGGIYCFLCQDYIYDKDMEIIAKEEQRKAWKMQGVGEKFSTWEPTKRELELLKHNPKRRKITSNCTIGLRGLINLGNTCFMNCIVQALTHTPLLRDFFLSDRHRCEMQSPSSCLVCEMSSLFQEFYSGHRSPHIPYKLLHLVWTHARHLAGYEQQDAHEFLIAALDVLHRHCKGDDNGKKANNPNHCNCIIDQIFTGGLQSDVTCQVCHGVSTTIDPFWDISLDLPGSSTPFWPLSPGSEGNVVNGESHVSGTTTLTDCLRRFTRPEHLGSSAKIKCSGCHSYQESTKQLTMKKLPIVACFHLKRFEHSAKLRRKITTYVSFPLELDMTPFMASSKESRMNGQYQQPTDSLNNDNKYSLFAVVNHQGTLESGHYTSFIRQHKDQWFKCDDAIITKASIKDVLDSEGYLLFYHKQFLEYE
# UniProt Q9UL40: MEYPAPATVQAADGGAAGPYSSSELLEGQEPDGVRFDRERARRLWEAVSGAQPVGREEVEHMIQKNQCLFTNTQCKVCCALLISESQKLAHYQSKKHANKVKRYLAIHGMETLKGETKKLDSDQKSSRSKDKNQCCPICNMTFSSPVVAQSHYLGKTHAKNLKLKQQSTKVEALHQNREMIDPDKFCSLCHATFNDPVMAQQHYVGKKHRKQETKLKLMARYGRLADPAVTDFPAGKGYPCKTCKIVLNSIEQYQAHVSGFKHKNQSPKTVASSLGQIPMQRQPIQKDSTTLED
# UniProt Q9UJK0: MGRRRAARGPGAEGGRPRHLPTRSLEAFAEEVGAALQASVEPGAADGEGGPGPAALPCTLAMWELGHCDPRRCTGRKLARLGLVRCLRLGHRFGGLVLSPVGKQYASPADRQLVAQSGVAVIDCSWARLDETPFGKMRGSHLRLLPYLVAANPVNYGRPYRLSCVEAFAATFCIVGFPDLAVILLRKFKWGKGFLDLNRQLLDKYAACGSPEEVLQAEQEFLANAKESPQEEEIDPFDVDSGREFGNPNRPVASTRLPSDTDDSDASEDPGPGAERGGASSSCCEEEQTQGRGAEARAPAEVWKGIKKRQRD
# UniProt Q9UHY7: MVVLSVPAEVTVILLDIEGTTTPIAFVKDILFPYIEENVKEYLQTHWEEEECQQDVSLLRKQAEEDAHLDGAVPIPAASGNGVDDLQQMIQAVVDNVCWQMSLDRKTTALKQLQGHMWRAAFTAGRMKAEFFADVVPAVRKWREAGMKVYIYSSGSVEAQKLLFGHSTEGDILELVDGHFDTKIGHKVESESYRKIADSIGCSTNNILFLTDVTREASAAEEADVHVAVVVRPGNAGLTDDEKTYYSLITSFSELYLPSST
# UniProt Q9UQL6: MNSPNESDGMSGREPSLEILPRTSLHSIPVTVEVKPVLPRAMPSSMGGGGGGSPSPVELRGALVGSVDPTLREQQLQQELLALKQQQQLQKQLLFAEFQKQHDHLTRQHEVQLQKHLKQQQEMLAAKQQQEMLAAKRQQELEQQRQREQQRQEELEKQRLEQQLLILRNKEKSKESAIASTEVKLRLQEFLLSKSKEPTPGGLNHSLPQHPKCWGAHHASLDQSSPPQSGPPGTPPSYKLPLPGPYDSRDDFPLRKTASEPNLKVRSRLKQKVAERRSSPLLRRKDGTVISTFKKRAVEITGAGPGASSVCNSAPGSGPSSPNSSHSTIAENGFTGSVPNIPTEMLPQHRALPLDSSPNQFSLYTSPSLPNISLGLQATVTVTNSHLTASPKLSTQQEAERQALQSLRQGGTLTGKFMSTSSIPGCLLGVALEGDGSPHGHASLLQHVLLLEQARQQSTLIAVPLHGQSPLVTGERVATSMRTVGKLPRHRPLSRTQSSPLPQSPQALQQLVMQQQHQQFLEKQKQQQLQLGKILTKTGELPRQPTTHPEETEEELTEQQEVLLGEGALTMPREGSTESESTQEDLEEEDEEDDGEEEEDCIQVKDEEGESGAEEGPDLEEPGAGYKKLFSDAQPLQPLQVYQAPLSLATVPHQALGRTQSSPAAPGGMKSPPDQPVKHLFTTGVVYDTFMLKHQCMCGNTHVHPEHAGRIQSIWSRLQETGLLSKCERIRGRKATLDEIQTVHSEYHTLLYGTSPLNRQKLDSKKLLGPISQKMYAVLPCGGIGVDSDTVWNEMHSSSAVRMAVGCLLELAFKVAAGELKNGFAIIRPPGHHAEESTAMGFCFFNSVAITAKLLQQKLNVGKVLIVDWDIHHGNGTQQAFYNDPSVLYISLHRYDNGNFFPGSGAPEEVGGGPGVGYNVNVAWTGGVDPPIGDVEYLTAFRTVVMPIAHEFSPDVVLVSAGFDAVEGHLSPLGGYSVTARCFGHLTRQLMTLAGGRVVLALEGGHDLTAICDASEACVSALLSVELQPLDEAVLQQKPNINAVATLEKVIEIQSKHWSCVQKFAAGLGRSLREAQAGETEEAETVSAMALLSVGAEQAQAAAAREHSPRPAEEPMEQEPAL
# UniProt Q9UJW0, whole entry: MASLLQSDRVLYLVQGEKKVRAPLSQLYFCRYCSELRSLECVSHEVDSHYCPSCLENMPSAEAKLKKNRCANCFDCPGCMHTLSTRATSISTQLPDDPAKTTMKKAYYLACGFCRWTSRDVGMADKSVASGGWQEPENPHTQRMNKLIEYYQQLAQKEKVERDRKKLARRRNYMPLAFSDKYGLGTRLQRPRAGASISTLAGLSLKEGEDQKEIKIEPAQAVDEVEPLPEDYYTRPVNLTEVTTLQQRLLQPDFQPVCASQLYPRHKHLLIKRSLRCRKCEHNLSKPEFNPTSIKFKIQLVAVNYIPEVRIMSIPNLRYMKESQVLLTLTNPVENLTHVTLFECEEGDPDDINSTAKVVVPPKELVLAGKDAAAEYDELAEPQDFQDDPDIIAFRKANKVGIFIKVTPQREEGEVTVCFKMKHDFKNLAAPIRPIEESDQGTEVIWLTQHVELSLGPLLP
# UniProt Q9UID3: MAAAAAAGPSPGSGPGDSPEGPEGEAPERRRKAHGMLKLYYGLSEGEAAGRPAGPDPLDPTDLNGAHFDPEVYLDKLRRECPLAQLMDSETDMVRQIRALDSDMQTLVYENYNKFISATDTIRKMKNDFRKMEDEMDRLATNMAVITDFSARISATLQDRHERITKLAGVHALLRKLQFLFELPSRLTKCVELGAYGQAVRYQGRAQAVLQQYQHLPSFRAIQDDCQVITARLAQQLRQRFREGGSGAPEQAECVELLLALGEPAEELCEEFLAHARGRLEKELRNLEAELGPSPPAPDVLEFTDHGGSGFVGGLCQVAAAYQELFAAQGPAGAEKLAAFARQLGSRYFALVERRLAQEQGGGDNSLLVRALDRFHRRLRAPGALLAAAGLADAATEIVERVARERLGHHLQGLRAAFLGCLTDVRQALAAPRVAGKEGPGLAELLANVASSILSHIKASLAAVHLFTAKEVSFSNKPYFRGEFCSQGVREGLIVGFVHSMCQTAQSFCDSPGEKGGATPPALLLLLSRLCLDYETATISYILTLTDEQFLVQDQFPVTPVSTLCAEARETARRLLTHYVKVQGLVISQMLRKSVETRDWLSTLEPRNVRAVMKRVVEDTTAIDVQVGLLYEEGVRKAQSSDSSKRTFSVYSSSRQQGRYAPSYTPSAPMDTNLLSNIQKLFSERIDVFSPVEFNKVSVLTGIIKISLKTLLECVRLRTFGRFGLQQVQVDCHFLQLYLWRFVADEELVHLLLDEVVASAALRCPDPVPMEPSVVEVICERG
# UniProt Q9UHX1: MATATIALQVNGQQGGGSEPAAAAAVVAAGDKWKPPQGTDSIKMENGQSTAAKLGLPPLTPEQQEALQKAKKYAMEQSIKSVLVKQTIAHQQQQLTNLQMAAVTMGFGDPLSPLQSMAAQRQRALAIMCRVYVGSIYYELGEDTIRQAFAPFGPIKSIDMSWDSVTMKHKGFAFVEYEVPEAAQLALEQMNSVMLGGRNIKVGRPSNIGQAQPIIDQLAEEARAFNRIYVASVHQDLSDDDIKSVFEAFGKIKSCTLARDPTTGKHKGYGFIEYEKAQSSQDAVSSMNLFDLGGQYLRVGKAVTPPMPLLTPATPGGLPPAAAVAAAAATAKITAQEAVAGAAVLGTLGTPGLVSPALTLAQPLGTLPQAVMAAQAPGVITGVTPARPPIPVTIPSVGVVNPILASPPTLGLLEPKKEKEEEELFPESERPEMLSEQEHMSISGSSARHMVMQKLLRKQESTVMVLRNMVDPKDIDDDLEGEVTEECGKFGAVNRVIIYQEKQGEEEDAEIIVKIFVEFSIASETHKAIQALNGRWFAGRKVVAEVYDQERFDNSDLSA
# Compound: CCc1cnccc1C(=O)Nc1cc2c(cc1F)NC(=O)CC2
# Assay: melting temperature shift (DMSO Tm minus MBE1-treated Tm) in cellular thermal proteome profiling; higher = less thermal stabilization by MBE1 (negative = stabilized by MBE1)
# Conditions: A375
Target,melting temperature shift (MBE1 concentration: 100 nM),melting temperature shift (MBE1 concentration: 1 uM)
FAF1 (UniProt Q9UNN5),-0.691 °C,0.228 °C
UniProt Q9UNH6,-0.36 °C,0.476 °C
SNX12 (UniProt Q9UMY4),0.782 °C,0.0488 °C
UniProt Q9Y2B0,-1.05 °C,
PSME2 (UniProt Q9UL46),-0.684 °C,0.168 °C
PLXNA1 (UniProt Q9UIW2),-0.791 °C,0.341 °C
UBQLN1 (UniProt Q9UMX0),,-3.16 °C
MKLN1 (UniProt Q9UL63),-0.406 °C,0.147 °C
ITM2B (UniProt Q9Y287),,1.45 °C
VPS28 (UniProt Q9UK41),1.45 °C,-0.812 °C
SCML2 (UniProt Q9UQR0),,11.8 °C
TPCN1 (UniProt Q9ULQ1),-2.09 °C,-1.21 °C
UniProt Q9UMN6,-1.12 °C,-0.841 °C
UniProt Q9Y250,,-1.32 °C
UniProt Q9UJU2,-0.698 °C,
SSX2IP (UniProt Q9Y2D8),0.0366 °C,
POLG2 (UniProt Q9UHN1),,-1.57 °C
UniProt Q9ULV0,,0.588 °C
EXOC7 (UniProt Q9UPT5),-0.499 °C,-0.438 °C
PACSIN3 (UniProt Q9UKS6),1.11 °C,0.397 °C
ZNHIT2 (UniProt Q9UHR6),-0.618 °C,
EIF3L (UniProt Q9Y262),-0.208 °C,0.0305 °C
SMG5 (UniProt Q9UPR3),0.476 °C,0.287 °C
UniProt Q9UJJ9,-2.36 °C,1.19 °C

Target,melting temperature shift (MBE1 concentration: 100 nM),melting temperature shift (MBE1 concentration: 1 uM)
AMFR (UniProt Q9UKV5),-1.62 °C,-0.959 °C
UniProt Q9UNA1,2.77 °C,
ZNF148 (UniProt Q9UQR1),-1.79 °C,0.684 °C
VDAC3 (UniProt Q9Y277),,-2.83 °C
NAGPA (UniProt Q9UK23),-6.63 °C,
UniProt Q9UJ14,,-3.24 °C
UniProt Q9UFH2,-0.0738 °C,
ABCG2 (UniProt Q9UNQ0),,-1.92 °C
ACAD8 (UniProt Q9UKU7),-0.684 °C,0.868 °C
UniProt Q9UKI2,,-5.75 °C
BCAP29 (UniProt Q9UHQ4),0.2 °C,-1.52 °C
RALY (UniProt Q9UKM9),0.385 °C,0.189 °C
TPX2 (UniProt Q9ULW0),,-3.73 °C
DBR1 (UniProt Q9UK59),-1.81 °C,-1.68 °C
KIDINS220 (UniProt Q9ULH0),-0.127 °C,-0.201 °C
TLK1 (UniProt Q9UKI8),1.67 °C,4.77 °C
SPG7 (UniProt Q9UQ90),-0.811 °C,-0.0794 °C
MAPRE3 (UniProt Q9UPY8),0.94 °C,-0.446 °C
ANAPC10 (UniProt Q9UM13),-0.28 °C,0.232 °C
UniProt Q9Y244,0.334 °C,0.979 °C
UniProt Q9Y251,-2.02 °C,-2.29 °C
AMACR (UniProt Q9UHK6),-0.377 °C,0.898 °C
USP22 (UniProt Q9UPT9),-1 °C,-0.154 °C
GPATCH8 (UniProt Q9UKJ3),-1.79 °C,-0.852 °C

Target,melting temperature shift (MBE1 concentration: 100 nM),melting temperature shift (MBE1 concentration: 1 uM)
GPN3 (UniProt Q9UHW5),-3.54 °C,4.58 °C
ANKRD50 (UniProt Q9ULJ7),-0.823 °C,-0.739 °C
UniProt Q9UPW0,0.36 °C,0.104 °C
CGGBP1 (UniProt Q9UFW8),-0.986 °C,-0.832 °C
SRP68 (UniProt Q9UHB9),0.188 °C,0.108 °C
UniProt Q9UH17,-0.0047 °C,-0.989 °C
SLC5A6 (UniProt Q9Y289),-2.8 °C,-0.522 °C
AKAP8L (UniProt Q9ULX6),-0.737 °C,-0.493 °C
UniProt Q9UGK8,-0.926 °C,-0.0515 °C
GTF3C4 (UniProt Q9UKN8),-1.29 °C,-0.57 °C
BAIAP2L1 (UniProt Q9UHR4),-0.718 °C,-0.134 °C
TRAPPC4 (UniProt Q9Y296),-2.66 °C,0.634 °C
BCS1L (UniProt Q9Y276),-0.244 °C,0.775 °C
DIMT1 (UniProt Q9UNQ2),-0.771 °C,-1.22 °C
FBXO9 (UniProt Q9UK97),-0.055 °C,-0.562 °C
NSFL1C (UniProt Q9UNZ2),-0.349 °C,-0.318 °C
UniProt Q9UHJ6,0.238 °C,0.58 °C
GGA1 (UniProt Q9UJY5),0.0733 °C,-0.055 °C
ZNF346 (UniProt Q9UL40),-1.33 °C,-0.563 °C
TSR3 (UniProt Q9UJK0),-2.98 °C,-3.64 °C
UniProt Q9UI15,2.23 °C,0.934 °C
BAZ1B (UniProt Q9UIG0),-0.199 °C,-0.263 °C
ATP11B (UniProt Q9Y2G3),-0.888 °C,-0.605 °C
LIMD1 (UniProt Q9UGP4),-0.915 °C,1.43 °C

# Quoted from the listing:
# melting temperature shift (MBE1 concentration: 1 uM) with BCS1L (UniProt Q9Y276) is entered as 0.775 °C
# melting temperature shift (MBE1 concentration: 100 nM) with ZNF346 (UniProt Q9UL40) is entered as -1.33 °C
# melting temperature shift (MBE1 concentration: 100 nM) with UniProt Q9UI15 is entered as 2.23 °C
# melting temperature shift (MBE1 concentration: 100 nM) with GTF3C4 (UniProt Q9UKN8) is entered as -1.29 °C

# The list goes on.

Target,melting temperature shift (MBE1 concentration: 100 nM),melting temperature shift (MBE1 concentration: 1 uM)
PPIE (UniProt Q9UNP9),-1.24 °C,-2.07 °C
PARP4 (UniProt Q9UKK3),1.33 °C,0.421 °C
NARF (UniProt Q9UHQ1),-0.472 °C,-2.09 °C
NOCT (UniProt Q9UK39),-0.454 °C,-0.0384 °C
SOX13 (UniProt Q9UN79),-0.107 °C,4.56 °C
AK3 (UniProt Q9UIJ7),-1.17 °C,0 °C
TUBGCP4 (UniProt Q9UGJ1),0.692 °C,0.503 °C
CYB5R1 (UniProt Q9UHQ9),-0.951 °C,0.208 °C
ENOPH1 (UniProt Q9UHY7),0.946 °C,0.623 °C
UniProt Q9UKG9,1.72 °C,1.28 °C
CDYL (UniProt Q9Y232),-1.49 °C,-2.32 °C
EXOC6B (UniProt Q9Y2D4),-1.63 °C,-4.4 °C
AGO1 (UniProt Q9UL18),-2.34 °C,0.922 °C
UniProt Q9UQL6,0.214 °C,0.202 °C
CORO1C (UniProt Q9ULV4),-0.409 °C,-0.00671 °C
TNRC6B (UniProt Q9UPQ9),1.02 °C,0.379 °C
LIMCH1 (UniProt Q9UPQ0),-1.24 °C,-0.403 °C
Q8IXS6 (UniProt Q9Y2D5),-7.9 °C,-2.44 °C
UniProt Q9UG01,-0.949 °C,-1.14 °C
RAB23 (UniProt Q9ULC3),-0.932 °C,0.389 °C
UniProt Q9UGU0,1.14 °C,1.01 °C
UniProt Q9Y2E5,-1.09 °C,0.788 °C
UniProt Q9UMF0,-4.78 °C,-0.0672 °C
UniProt Q9UIF9,-0.266 °C,-0.66 °C

Target,melting temperature shift (MBE1 concentration: 100 nM),melting temperature shift (MBE1 concentration: 1 uM)
DCTN4 (UniProt Q9UJW0),-6.54 °C,0.1 °C
ANAPC4 (UniProt Q9UJX5),-0.171 °C,0.446 °C
SLC12A6 (UniProt Q9UHW9),-1.01 °C,-2.46 °C
SLC12A4 (UniProt Q9UP95),-0.476 °C,0.402 °C
UniProt Q9UJA3,-5.23 °C,-3.04 °C
UniProt Q9ULU4,-0.377 °C,-0.137 °C
SMC3 (UniProt Q9UQE7),0.318 °C,0.275 °C
ZC3H4 (UniProt Q9UPT8),-0.532 °C,-2.9 °C
RAB21 (UniProt Q9UL25),-2.73 °C,-1.99 °C
ATP6V1H (UniProt Q9UI12),-1.28 °C,-0.501 °C
UniProt Q9UMX1,0.525 °C,1.42 °C
MTRF1L (UniProt Q9UGC7),-0.765 °C,0.537 °C
APPL1 (UniProt Q9UKG1),0.525 °C,-0.134 °C
DBNL (UniProt Q9UJU6),0.202 °C,-0.33 °C
VPS51 (UniProt Q9UID3),-0.0272 °C,-0.0822 °C
UniProt Q9Y297,1.27 °C,0.195 °C
PUF60 (UniProt Q9UHX1),0.202 °C,-0.586 °C
HACL1 (UniProt Q9UJ83),0.121 °C,-1.11 °C
UniProt Q9UPN3,0.366 °C,-0.128 °C
SHOC2 (UniProt Q9UQ13),-1.11 °C,0.771 °C
RUVBL2 (UniProt Q9Y230),-1.19 °C,-1.28 °C
RASAL2 (UniProt Q9UJF2),-0.687 °C,-0.296 °C
SLC7A11 (UniProt Q9UPY5),-0.269 °C,2.83 °C
UniProt Q9ULD9,-1.85 °C,0.0427 °C

# Source: the supplement of paper PMC12595434, “Development of retinoid nuclear receptor pathway antagonists through targeting aldehyde dehydrogenase 1A3” (iScience, 2025)
